The supplement of paper PMC10849652
The list shows a part of the results.

The chains behind the UniProt entries cited, without tags or fusion partners. Where a name states a change or a piece, a line headed by the entry shows the natural chain unless it says otherwise.
UniProt Q9Y2D4: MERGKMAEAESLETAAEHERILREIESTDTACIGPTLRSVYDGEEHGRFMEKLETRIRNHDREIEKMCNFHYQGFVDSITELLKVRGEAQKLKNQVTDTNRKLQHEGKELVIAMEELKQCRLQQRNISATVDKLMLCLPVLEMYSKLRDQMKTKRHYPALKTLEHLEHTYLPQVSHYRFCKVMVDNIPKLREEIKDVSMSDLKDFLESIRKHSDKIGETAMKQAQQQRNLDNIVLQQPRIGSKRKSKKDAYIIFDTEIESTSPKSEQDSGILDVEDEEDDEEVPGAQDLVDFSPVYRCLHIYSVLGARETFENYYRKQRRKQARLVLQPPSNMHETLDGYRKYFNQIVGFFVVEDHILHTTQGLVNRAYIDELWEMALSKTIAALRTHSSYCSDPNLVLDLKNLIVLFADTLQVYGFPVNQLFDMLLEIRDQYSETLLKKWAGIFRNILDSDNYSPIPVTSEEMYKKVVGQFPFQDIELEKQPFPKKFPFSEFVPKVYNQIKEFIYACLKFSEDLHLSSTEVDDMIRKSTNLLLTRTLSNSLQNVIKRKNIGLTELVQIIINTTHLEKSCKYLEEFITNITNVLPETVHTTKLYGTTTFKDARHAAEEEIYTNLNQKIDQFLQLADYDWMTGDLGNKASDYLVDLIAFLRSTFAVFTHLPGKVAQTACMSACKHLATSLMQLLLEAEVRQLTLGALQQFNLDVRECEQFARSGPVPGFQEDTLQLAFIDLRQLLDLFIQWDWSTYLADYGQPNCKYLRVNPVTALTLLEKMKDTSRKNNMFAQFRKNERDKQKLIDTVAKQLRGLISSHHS
UniProt Q8N128: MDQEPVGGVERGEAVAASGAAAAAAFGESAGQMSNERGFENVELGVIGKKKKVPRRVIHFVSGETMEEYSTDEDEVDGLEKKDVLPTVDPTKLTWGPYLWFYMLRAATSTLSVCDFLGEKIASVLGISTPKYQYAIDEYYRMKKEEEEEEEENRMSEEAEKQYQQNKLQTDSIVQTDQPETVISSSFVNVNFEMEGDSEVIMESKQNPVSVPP
UniProt Q14153: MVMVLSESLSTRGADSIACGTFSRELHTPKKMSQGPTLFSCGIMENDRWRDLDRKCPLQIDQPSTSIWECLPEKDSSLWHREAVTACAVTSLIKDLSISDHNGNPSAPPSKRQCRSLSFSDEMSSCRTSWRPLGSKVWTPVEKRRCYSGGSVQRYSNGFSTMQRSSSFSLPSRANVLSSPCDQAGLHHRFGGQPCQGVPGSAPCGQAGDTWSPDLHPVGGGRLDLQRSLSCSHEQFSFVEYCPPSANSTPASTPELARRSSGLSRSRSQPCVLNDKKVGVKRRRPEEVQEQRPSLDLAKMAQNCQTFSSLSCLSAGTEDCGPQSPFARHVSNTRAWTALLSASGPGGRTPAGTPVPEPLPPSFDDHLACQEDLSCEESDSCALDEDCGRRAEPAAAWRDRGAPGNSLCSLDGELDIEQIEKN
UniProt Q9UBQ6: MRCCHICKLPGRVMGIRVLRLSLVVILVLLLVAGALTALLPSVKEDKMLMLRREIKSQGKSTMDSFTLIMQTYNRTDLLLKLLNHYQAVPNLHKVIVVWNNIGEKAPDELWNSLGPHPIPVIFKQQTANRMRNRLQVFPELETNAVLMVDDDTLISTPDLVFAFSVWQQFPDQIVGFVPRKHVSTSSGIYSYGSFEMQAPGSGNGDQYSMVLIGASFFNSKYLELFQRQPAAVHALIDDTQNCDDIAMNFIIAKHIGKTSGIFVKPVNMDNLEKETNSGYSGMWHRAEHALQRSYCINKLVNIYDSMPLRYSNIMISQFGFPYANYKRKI
UniProt Q8TAG9: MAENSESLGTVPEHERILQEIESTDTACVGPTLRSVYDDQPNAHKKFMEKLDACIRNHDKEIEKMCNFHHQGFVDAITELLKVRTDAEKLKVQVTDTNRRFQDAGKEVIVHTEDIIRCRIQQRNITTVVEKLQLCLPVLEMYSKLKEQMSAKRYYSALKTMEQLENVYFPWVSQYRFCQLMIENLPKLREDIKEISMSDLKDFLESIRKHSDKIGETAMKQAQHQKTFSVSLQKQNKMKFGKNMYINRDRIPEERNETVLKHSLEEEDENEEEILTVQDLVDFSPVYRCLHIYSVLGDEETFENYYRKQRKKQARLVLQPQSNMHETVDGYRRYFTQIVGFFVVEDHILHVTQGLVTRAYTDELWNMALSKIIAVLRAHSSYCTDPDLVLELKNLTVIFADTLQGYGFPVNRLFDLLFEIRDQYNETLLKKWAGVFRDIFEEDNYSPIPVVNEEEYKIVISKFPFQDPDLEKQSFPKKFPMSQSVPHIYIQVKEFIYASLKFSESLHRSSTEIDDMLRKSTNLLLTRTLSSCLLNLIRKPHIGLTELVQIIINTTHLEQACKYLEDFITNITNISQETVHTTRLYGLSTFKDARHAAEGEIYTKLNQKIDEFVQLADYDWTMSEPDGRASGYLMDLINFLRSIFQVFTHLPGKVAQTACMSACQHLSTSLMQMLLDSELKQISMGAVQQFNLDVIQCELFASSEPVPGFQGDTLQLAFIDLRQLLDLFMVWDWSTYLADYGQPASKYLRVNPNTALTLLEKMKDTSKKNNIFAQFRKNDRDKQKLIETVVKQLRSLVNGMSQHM
UniProt P43268: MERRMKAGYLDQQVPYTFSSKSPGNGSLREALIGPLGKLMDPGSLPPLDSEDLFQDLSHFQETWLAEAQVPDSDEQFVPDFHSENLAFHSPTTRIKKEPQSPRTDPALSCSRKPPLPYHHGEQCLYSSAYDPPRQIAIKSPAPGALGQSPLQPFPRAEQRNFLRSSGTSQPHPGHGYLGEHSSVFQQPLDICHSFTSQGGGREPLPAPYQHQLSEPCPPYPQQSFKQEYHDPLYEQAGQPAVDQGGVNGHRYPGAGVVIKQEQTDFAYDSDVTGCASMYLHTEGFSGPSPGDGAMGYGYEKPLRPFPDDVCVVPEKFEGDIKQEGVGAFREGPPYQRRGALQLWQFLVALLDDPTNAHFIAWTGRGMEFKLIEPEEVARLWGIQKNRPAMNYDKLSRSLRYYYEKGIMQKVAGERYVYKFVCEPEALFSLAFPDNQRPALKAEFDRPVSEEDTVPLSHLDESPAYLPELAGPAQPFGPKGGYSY
UniProt Q9Y2C4: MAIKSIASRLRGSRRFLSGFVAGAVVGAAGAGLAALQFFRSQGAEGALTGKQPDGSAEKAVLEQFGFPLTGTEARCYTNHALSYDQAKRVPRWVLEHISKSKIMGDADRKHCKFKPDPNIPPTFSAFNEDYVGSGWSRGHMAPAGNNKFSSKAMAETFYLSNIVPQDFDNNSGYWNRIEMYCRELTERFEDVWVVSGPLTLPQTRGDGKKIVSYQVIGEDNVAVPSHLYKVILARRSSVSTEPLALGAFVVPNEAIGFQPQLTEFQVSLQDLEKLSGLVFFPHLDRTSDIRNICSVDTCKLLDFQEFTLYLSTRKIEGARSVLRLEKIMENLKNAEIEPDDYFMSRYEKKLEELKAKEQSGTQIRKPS
UniProt Q99504: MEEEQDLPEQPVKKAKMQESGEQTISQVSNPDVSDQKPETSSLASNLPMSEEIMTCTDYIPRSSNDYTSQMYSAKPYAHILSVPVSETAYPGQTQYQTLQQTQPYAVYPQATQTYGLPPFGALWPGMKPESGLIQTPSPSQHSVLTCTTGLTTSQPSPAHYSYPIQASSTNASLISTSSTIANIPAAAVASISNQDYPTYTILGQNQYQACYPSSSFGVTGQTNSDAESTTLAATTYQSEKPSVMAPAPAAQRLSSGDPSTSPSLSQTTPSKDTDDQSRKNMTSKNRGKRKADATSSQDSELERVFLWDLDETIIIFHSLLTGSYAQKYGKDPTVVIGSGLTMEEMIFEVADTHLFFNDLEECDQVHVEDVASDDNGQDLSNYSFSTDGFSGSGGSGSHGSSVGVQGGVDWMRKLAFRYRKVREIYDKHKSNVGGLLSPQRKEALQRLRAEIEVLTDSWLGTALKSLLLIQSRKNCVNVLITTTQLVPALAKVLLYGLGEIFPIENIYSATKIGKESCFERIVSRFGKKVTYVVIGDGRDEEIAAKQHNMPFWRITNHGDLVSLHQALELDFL
UniProt Q8N612: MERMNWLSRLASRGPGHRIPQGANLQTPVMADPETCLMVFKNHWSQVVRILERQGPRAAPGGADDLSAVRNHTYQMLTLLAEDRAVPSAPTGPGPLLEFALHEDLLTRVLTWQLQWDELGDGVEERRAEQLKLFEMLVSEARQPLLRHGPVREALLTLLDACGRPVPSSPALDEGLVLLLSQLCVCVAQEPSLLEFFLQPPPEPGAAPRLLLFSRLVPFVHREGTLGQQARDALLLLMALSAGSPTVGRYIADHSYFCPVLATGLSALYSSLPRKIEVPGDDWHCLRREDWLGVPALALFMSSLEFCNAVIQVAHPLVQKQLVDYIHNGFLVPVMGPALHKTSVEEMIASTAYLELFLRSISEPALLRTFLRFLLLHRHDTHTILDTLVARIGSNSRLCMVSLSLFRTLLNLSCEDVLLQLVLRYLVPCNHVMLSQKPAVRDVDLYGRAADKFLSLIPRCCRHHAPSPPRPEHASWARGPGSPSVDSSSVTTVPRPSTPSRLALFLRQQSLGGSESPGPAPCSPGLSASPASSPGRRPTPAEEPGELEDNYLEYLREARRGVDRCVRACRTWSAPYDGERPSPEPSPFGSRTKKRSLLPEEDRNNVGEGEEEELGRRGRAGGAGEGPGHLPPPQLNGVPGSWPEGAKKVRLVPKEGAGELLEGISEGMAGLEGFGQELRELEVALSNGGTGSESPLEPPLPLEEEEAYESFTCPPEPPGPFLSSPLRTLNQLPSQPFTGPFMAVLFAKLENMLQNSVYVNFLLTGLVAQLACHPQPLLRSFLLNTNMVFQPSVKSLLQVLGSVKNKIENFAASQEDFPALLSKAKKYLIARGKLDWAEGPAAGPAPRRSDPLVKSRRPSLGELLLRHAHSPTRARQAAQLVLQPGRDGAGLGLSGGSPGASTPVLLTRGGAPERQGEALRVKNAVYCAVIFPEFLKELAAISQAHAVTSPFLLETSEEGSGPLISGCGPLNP
UniProt P50549: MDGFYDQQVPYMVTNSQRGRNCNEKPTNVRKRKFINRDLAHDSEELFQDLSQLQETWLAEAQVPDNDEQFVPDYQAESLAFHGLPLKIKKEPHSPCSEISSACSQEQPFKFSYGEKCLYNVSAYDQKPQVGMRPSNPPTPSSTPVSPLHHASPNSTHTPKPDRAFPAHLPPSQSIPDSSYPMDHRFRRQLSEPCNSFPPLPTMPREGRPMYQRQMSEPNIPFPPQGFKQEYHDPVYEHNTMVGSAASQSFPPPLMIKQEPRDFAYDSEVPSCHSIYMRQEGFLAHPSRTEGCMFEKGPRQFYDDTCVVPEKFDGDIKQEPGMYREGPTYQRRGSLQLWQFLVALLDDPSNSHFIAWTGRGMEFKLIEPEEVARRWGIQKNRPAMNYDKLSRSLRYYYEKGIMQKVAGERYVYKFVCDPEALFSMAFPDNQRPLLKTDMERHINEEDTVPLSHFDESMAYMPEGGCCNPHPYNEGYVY
UniProt Q9Y3B2, whole entry, looked up: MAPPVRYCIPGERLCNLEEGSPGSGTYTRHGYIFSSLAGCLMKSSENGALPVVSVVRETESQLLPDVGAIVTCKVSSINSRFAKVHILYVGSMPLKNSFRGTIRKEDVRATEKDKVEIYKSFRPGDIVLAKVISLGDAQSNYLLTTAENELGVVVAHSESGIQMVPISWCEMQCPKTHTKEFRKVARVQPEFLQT
UniProt Q96RI0: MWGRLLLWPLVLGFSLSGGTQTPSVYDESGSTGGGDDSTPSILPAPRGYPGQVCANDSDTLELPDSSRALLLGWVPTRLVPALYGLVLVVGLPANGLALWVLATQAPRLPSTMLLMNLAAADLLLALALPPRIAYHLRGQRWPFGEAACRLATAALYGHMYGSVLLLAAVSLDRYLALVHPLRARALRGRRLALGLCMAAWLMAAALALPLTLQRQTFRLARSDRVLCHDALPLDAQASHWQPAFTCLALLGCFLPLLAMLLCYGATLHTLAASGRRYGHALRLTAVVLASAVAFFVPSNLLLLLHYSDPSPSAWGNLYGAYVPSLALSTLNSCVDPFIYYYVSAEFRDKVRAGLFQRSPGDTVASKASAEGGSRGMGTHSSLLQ
UniProt Q8IXS8: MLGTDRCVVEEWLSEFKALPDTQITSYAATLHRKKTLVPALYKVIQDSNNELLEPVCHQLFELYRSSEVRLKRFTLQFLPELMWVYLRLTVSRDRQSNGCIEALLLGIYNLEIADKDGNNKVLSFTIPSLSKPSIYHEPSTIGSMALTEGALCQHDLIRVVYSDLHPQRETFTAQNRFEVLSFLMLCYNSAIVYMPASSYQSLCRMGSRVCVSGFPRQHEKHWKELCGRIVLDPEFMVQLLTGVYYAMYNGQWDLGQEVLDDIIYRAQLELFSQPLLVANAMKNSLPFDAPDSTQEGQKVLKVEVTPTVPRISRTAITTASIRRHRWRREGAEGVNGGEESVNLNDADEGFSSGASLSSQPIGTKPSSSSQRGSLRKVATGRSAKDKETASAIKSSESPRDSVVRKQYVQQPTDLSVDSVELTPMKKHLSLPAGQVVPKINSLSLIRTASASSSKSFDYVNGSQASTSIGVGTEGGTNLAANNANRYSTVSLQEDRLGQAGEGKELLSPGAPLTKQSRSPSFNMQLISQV

Experiments:
Assay in all cases: log2 fold change, soluble protein after heating vs DMSO (PISA); higher = thermal stabilisation; K562 lysate, 10 uM; active = over 0.2 and 3.5 SD of the protein, either way, in both replicates (recomputed)
[1] = compound: Cc1cn(-c2cc(NC(=O)c3ccc(C)c(Nc4nccc(-c5cccnc5)n4)c3)cc(C(F)(F)F)c2)cn1 [nilotinib]
In short: (§1)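 Quantification was by TMTpro 16plex LC-MS/MS with equalised channel sums, applied to the supernatant after 21,000xg for 90 min. Samples were crude K562 extract at 1 mg/mL protein in PBS pH 7.4 with 1 mM MgCl2, treated with 10 μM compound for 30 min, heated for 3 min across 48°C-58°C, pooled and brought to 0.5% NP-40 at 4°C. Values are log-two fold changes in thermal stability relative to solvent controls, from duplicates.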

[2] = compound: Cc1nc(Nc2n[nH]c3c2CN(C(=O)N[C@H](CN(C)C)c2ccccc2)C3(C)C)c2sccc2n1
In short: as §1

[3] = compound: Cc1ncc(-c2ccnc(Nc3ccc(S(C)(=O)=O)cc3)n2)n1C(C)C
In short: as §1

[4] = compound: Cn1cc(CNCC2CCN(c3ncc(C(=O)NO)cn3)CC2)c2ccccc21 [quisinostat]
In short: as §1

[5] = compound: Cn1cncc1[C@@](N)(c1ccc(Cl)cc1)c1ccc2c(c1)c(-c1cccc(Cl)c1)cc(=O)n2C [tipifarnib]
In short: as §1

[6] = compound: NC(=O)Nc1cc(-c2cccc(F)c2)sc1C(=O)N[C@H]1CCCNC1
In short: as §1

[7] = compound: NC1(c2ccc(-c3nc4ccn5c(=O)[nH]nc5c4cc3-c3ccccc3)cc2)CCC1
In short: as §1

[8] = compound: NC(=O)c1cnc(N[C@@H]2CCCC[C@@H]2N)nc1Nc1cccc(-n2nccn2)c1
In short: as §1

[9] = compound: Cc1nc(Nc2ncc(C(=O)Nc3c(C)cccc3Cl)s2)cc(N2CCN(CCO)CC2)n1 [dasatinib]
In short: as §1

[10] = compound: Cn1cc(-c2ccc3c(c2)CCN3C(=O)Cc2cccc(C(F)(F)F)c2)c2c(N)ncnc21
In short: as §1

Measured: log2 fold change

FAM160B2 (UniProt Q86V87)
inactive: [1] -0.063 | [2] -0.08 | [3] 0.094 | [4] -0.272 | [5] -0.029 | [6] 0 | [7] 0.128

EXOC6B (UniProt Q9Y2D4)
inactive: [1] 0.025 | [2] 0.019 | [3] -0.013 | [4] -0.045 | [5] 0.009 | [6] 0.015 | [8] -0.015

ERLEC1 (UniProt Q96DZ1)
inactive: [1] 0.018 | [2] -0.019 | [9] 0.009 | [3] -0.015 | [10] 0.054 | [4] 0.01 | [5] -0.026 | [6] 0.01 | [8] -0.002 | [7] -0.019

FAM177A1 isoform 2 (UniProt Q8N128)
inactive: [1] 0.015 | [2] 0.013 | [9] 0.017 | [3] -0.066 | [10] 0.012 | [4] 0.035 | [5] 0.007 | [6] 0.025 | [8] -0.002 | [7] -0.044

EZR (UniProt P15311)
inactive: [1] 0.022 | [2] -0.017 | [9] 0.009 | [3] -0.005 | [10] -0.024 | [4] 0.055 | [5] 0.022 | [6] -0.012 | [8] -0.01 | [7] 0.016

Pulled one by one from the list above (2):
FAM160B2 (UniProt Q86V87)
inactive: [1] -0.063 | [2] -0.08 | [3] 0.094 | [4] -0.272 | [5] -0.029 | [6] 0 | [7] 0.128

EXOC6B (UniProt Q9Y2D4)
inactive: [1] 0.025 | [2] 0.019 | [3] -0.013 | [4] -0.045 | [5] 0.009 | [6] 0.015 | [8] -0.015

Next entries:

FAM53B (UniProt Q14153)
inactive: [1] 0.015 | [2] 0.013 | [9] 0.036 | [3] 0.004 | [10] 0.14 | [4] -0.078 | [5] -0.013 | [6] 0.093 | [7] 0.042

FAM193A, A0A1B0GVL4
inactive: [1] -0.001 | [2] -0.016 | [3] -0.04 | [4] 0.036 | [5] -0.041 | [6] 0.064 | [8] -0.119 | [7] 0.055

FAM83A (UniProt Q86UY5)
inactive: [1] -0.007 | [2] -0.069 | [9] -0.028 | [3] -0.016 | [10] -0.033 | [4] -0.088 | [5] -0.08 | [6] 0.034 | [8] 0.004 | [7] -0.019

EXTL2 (UniProt Q9UBQ6)
inactive: [1] 0.07 | [2] -0.085 | [9] 0.127 | [3] 0.081 | [10] 0.13 | [4] -0.146 | [5] 0.017 | [6] 0.035 | [8] -0.068 | [7] 0.003

ERVK3-1, A0A0U1RQV1
inactive: [1] 0.02 | [2] 0.006 | [9] -0.068 | [3] -0.028 | [10] -0.096 | [4] -0.088 | [5] 0.002 | [6] 0.005 | [8] -0.019 | [7] -0.049

EXOC6 (UniProt Q8TAG9)
inactive: [1] -0.002 | [2] 0.01 | [9] -0.063 | [3] 0.022 | [10] 0.064 | [4] -0.023 | [5] -0.044 | [6] 0.068 | [8] 0.024 | [7] -0.064

ETV4 (UniProt P43268)
inactive: [1] 0.113 | [2] -0.064 | [3] 0.039 | [4] 0.079 | [5] -0.035 | [6] 0.085 | [7] -0.13

EXOSC5 (UniProt Q9NQT4)
inactive: [1] 0.019 | [2] -0.023 | [9] -0.032 | [3] 0.017 | [10] 0.017 | [4] 0.042 | [5] -0.002 | [6] -0.021 | [8] 0.002 | [7] 0.003

EXOG (UniProt Q9Y2C4)
inactive: [1] -0.102 | [2] -0.207 | [9] -0.018 | [3] -0.195 | [10] 0.052 | [5] -0.082 | [8] 0.011 | [7] -0.171

EYA3 (UniProt Q99504)
inactive: [1] 0.007 | [2] -0.003 | [9] -0.034 | [3] -0.004 | [10] -0.003 | [4] -0.103 | [5] -0.094 | [6] 0.061 | [8] 0.024 | [7] -0.093

FAM20B (UniProt O75063)
inactive: [1] 0.066 | [2] -0.044 | [9] -0.01 | [3] -0.004 | [10] 0.016 | [4] 0.035 | [5] -0.05 | [6] 0.037 | [8] 0.022 | [7] 0.043

ERICH1 (UniProt Q86X53)
inactive: [1] -0.07 | [2] -0.111 | [9] 0.059 | [3] 0.067 | [10] 0.073 | [4] -0.07 | [5] -0.153 | [6] -0.017 | [8] 0.117 | [7] 0.064

FAM49A (UniProt Q9H0Q0)
inactive: [1] 0.05 | [2] 0.062 | [3] -0.102 | [4] -0.119 | [5] 0.162 | [6] 0.127 | [8] -0.004 | [7] -0.09

FAM160A2 isoform 2 (UniProt Q8N612)
inactive: [1] -0.067 | [2] 0.01 | [9] 0.14 | [3] -0.135 | [10] 0.136 | [4] -0.031 | [5] -0.156 | [6] 0.041 | [7] -0.049

ESS2 (UniProt Q96DF8)
inactive: [1] 0.02 | [2] -0.003 | [9] 0.061 | [3] -0.026 | [10] 0.013 | [4] -0.098 | [5] -0.082 | [6] 0.006 | [8] 0.003 | [7] -0.018

FAM76B (UniProt Q5HYJ3)
inactive: [1] -0.044 | [2] 0.019 | [9] 0.093 | [3] -0.004 | [10] 0.005 | [4] -0.028 | [5] -0.019 | [6] -0.032 | [8] -0.026 | [7] -0.07

FAM210A (UniProt Q96ND0)
inactive: [1] 0.013 | [2] -0.038 | [9] 0.024 | [3] -0.013 | [10] 0.007 | [4] -0.051 | [5] -0.004 | [6] 0.009 | [8] -0.034 | [7] -0.01

ETV1 (UniProt P50549)
inactive: [1] -0.171 | [2] -0.365 | [9] -0.12 | [3] -0.181 | [10] -0.109 | [5] -0.018 | [7] -0.037

EXOSC1 (UniProt Q9Y3B2)
inactive: [1] 0.175 | [2] 0 | [9] -0.002 | [3] 0.01 | [10] -0.016 | [4] 0.02 | [5] 0.235 | [6] 0.017 | [8] -0.001 | [7] 0.026

F2RL3 (UniProt Q96RI0)
inactive: [1] 0.153 | [2] -0.007 | [9] -0.023 | [3] -0.022 | [10] 0.039 | [5] -0.145 | [8] 0.049 | [7] -0.053

ESRRB isoform 1 (UniProt O95718)
inactive: [7] 0.182

F2 (UniProt P00734)
inactive: [8] -0.041

EVA1B (UniProt Q9NVM1)
inactive: [9] 0.014 | [10] 0.239 | [4] -0.006 | [6] -0.015 | [7] -0.08

FAM126B (UniProt Q8IXS8)
inactive: [9] -0.078 | [10] 0.092 | [8] 0.065 | [7] -0.082

EURL (UniProt Q9NYK6)
inactive: [9] 0.043 | [10] 0.032 | [8] 0.523 | [7] -0.305

FAM219B (UniProt Q5XKK7)
inactive: [4] -0.169 | [6] 0.04

FAM219A (UniProt Q8IW50)
inactive: [9] 0.003 | [10] -0.005 | [4] 0.372 | [6] -0.01 | [8] -0.006 | [7] 0.152
